Series [1] deals with M.SssI CpG methyltransferase (UniProt P15840). The experiment in a line: activity assay. As to conditions: CpG methylation; DNA protected from HpaII (data not shown); purified recombinant protein; only the motif is given.
The target in series [2] is M.TaqI DNA adenine methyltransferase (UniProt P14385). The experiment in a line: binding assay. The note with it: purified recombinant protein, only the motif is given.
Series [3] addresses M.SssI CpG methyltransferase (Q142A/N370A) (UniProt P15840). The experiment in a line: binding assay. As to conditions: AdoYnAzide cofactor then fluorophore attachment; more label in CLL DNA; purified recombinant protein; only the motif is given.

Amino acid sequences for entries named in this document (tags omitted). A change or cut given only in a name is not applied to a line headed by its entry.
UniProt P15840: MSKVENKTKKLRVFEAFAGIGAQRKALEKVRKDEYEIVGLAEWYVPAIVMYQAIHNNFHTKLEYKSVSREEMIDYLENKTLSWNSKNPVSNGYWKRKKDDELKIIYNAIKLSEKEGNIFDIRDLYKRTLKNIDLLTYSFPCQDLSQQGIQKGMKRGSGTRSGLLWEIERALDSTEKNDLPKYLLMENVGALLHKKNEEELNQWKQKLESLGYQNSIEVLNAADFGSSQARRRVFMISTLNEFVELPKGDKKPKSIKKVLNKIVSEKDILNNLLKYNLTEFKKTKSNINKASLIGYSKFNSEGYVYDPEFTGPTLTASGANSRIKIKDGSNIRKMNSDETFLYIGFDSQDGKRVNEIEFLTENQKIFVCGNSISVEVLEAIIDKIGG
UniProt P14385: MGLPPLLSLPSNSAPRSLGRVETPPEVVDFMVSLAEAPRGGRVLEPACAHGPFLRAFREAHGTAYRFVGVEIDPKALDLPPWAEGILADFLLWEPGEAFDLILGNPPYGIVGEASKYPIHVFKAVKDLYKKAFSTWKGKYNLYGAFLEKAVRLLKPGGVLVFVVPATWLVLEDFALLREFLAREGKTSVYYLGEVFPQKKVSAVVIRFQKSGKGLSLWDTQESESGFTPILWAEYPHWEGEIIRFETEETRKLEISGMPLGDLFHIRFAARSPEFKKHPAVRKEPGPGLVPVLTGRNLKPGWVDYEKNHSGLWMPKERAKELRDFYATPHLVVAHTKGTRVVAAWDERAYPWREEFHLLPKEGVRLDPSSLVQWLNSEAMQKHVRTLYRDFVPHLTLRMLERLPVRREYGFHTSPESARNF

For at least one entry, the source does not settle the construct or the ends of the probe. For some of these results: Negatives hold for the conditions tested.

For the sequence “CG (double strand) [D4Z4 BAC CH16-291A23, CpG sites]”, the “activity on this sequence” value in series [1] is on record as “active”.

With “TCGA (double strand) [unmethylated D4Z4 BAC CH16-291A23, M.TaqI site]”, the binding result in series [2] (TAMRA transfer from AdoYnTAMRA, 10 mM Mg, 60 C, labels at expected sites) was “binds”.

As to “TCGA (double strand) [CpG-methylated D4Z4 BAC, M.TaqI site]”, in series [2] (5mC at CpG (M.SssI pre-methylated), no label when CpG in TCGA methylated), the binding result is on record as “no binding”.

As to “CG (double strand) [human PBMC genomic DNA, unmethylated CpG]”, the binding result in series [3] is “binds”.
